Reference: the supplement of paper PMC11546906
Where a name gives a salt, the structure may show the parent alone. This is one part of the list. Repeats in this data set agree poorly, so a single value says little.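 FDA-approved drugs were each paired with colistin at one-eighth its MIC and screened against a multidrug-resistant, mcr-1-positive clinical E. coli isolate, with OD600 read after 24 h. Drug-free bacteria served as growth control, plain broth as blank. Combinations were active if OD600 dropped below 0.2.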

system: Escherichia coli 42 (mcr-1-positive clinical isolate); experiment: OD600 after 24 h growth with compound plus colistin (absorbance units (OD600)); higher = more bacterial growth (less inhibition); conditions: first compound 25 µM; colistin concentration 0.5 ug/mL; incubation time 24 h; 37 °C

OD600, inactive:
CC(CN1c2ccccc2Sc2ccccc21)N(C)C (centres undefined) [Promethazine hydrochloride] + CCC(C)CCCC(=O)N[C@@H](CCN)C(=O)N[C@H](C(=O)N[C@@H](CCN)C(=O)N[C@H]1CCNC(=O)[C@H]([C@@H](C)O)NC(=O)[C@H](CCN)NC(=O)[C@H](CCN)NC(=O)[C@H](CC(C)C)NC(=O)[C@@H](CC(C)C)NC(=O)[C@H](CCN)NC1=O)[C@@H](C)O [colistin] 1.15
O=C(O)c1cc(/N=N/c2ccc(S(=O)(=O)Nc3ccccn3)cc2)ccc1O [Sulfasalazine] + CCC(C)CCCC(=O)N[C@@H](CCN)C(=O)N[C@H](C(=O)N[C@@H](CCN)C(=O)N[C@H]1CCNC(=O)[C@H]([C@@H](C)O)NC(=O)[C@H](CCN)NC(=O)[C@H](CCN)NC(=O)[C@H](CC(C)C)NC(=O)[C@@H](CC(C)C)NC(=O)[C@H](CCN)NC1=O)[C@@H](C)O [colistin] 1.07
CC(CN(C)C)CN1c2ccccc2CCc2ccccc21 (centres undefined) [Trimipramine maleate] + CCC(C)CCCC(=O)N[C@@H](CCN)C(=O)N[C@H](C(=O)N[C@@H](CCN)C(=O)N[C@H]1CCNC(=O)[C@H]([C@@H](C)O)NC(=O)[C@H](CCN)NC(=O)[C@H](CCN)NC(=O)[C@H](CC(C)C)NC(=O)[C@@H](CC(C)C)NC(=O)[C@H](CCN)NC1=O)[C@@H](C)O [colistin] 1.06
CCCN[C@H]1CCc2nc(N)sc2C1 [Pramipexole] + CCC(C)CCCC(=O)N[C@@H](CCN)C(=O)N[C@H](C(=O)N[C@@H](CCN)C(=O)N[C@H]1CCNC(=O)[C@H]([C@@H](C)O)NC(=O)[C@H](CCN)NC(=O)[C@H](CCN)NC(=O)[C@H](CC(C)C)NC(=O)[C@@H](CC(C)C)NC(=O)[C@H](CCN)NC1=O)[C@@H](C)O [colistin] 1.06
